For this test, the target named is STAT1 WT-Flag (human) (UniProt P42224). Description: co-IP; Cos-7 cells co-transfected with STAT1-HA and STAT1-Flag with or without SUMO-1-His; unstimulated or IFN-γ (100 ng/ml, 45 min) and osmotic shock (0.3 M sorbitol, 15 min); lysis in 20 mM HEPES pH 8.0, 100 mM NaCl, 1% Triton X-100, 10% glycerol, 50 mM NaF, 1 mM EDTA, 10 mM NEM; anti-Flag M2 agarose 3 h at 4°C, elution with Flag peptide, blot with anti-HA.

By UniProt entry, the sequences of proteins in these tests, tags left out.
UniProt P42224: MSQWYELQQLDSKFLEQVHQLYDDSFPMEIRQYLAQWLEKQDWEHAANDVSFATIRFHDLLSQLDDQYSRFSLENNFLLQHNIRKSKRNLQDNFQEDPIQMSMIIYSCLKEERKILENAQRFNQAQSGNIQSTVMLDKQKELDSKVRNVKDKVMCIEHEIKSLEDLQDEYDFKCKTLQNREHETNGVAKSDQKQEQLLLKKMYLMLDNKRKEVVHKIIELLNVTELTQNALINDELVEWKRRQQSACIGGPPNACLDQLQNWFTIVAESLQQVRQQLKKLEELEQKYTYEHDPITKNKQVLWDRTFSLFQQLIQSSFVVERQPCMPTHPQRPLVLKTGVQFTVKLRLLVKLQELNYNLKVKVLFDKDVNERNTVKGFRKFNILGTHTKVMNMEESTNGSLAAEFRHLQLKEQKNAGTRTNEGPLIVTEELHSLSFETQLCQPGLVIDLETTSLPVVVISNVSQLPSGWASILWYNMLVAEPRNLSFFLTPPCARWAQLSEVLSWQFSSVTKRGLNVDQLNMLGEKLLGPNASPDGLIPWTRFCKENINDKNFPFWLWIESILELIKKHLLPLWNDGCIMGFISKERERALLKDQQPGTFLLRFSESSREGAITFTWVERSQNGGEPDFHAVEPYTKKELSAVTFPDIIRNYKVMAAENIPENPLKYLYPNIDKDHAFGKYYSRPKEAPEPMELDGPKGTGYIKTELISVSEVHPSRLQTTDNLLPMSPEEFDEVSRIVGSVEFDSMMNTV

No constants are given. Whether binding was seen depends on the method and setting. Binding seen in cells or lysates may run through a third protein. Some results given as binding are weak or reduced against the parent protein; the word gives no strength.

The values that follow come from article PMC3532225.

As to “SUMO-1 conjugated STAT1-HA (from UniProt P42224 1-750; P63165 1-97)”, the binding result is on record as “binds”.
